# Measured values published in the supplement of paper PMC12067093, “Discovery and optimisation of a covalent ligand for TRIM25 and its application to targeted protein ubiquitination” (Chemical Science, 2025).
# The chains behind the UniProt entries cited, without tags or fusion partners. Where a name states a change or a piece, a line headed by the entry shows the natural chain unless it says otherwise.
# UniProt Q8IWV8: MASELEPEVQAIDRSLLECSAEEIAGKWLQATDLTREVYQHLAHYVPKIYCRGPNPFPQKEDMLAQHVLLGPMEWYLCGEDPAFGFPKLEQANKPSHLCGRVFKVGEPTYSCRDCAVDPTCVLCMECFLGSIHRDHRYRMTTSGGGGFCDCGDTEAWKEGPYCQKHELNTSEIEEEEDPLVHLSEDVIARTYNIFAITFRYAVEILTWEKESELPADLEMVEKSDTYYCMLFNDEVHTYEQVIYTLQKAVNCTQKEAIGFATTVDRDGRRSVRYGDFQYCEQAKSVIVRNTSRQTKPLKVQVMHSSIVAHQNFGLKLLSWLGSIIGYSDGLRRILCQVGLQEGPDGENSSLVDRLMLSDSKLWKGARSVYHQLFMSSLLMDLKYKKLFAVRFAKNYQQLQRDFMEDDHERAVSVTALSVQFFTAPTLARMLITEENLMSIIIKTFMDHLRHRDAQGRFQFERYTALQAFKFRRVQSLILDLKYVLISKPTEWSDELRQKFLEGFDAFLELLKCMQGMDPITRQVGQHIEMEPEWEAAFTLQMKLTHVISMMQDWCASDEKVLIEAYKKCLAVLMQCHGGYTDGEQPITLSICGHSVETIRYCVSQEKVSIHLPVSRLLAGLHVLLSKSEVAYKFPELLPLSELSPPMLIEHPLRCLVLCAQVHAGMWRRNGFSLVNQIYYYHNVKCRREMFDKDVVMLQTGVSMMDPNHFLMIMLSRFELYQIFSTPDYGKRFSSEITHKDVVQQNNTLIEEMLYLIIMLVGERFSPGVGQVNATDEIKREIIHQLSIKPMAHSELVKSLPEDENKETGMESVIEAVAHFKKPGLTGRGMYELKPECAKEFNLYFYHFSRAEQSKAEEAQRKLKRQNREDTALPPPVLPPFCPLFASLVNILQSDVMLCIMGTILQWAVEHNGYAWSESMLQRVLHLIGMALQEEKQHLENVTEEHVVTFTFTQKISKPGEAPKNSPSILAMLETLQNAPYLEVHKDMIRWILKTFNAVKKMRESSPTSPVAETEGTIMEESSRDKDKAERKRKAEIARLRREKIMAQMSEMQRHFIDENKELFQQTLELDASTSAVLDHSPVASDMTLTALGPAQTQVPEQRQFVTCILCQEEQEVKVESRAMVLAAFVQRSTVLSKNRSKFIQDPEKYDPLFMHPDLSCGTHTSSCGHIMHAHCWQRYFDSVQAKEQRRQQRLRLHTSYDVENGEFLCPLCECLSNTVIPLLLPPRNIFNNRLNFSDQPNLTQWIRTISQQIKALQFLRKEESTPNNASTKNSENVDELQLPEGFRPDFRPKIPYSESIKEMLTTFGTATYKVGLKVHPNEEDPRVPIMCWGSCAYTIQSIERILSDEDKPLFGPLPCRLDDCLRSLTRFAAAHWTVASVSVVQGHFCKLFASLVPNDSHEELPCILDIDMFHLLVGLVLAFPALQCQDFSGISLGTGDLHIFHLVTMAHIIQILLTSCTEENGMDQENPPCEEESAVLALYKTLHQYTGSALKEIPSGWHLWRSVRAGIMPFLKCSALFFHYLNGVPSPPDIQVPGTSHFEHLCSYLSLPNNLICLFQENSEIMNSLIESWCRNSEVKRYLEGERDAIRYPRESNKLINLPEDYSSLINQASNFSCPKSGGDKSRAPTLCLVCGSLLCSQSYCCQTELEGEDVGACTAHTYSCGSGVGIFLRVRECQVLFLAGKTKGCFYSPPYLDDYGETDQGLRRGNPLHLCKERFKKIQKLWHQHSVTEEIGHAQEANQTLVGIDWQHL
# UniProt Q16881, whole entry, looked up: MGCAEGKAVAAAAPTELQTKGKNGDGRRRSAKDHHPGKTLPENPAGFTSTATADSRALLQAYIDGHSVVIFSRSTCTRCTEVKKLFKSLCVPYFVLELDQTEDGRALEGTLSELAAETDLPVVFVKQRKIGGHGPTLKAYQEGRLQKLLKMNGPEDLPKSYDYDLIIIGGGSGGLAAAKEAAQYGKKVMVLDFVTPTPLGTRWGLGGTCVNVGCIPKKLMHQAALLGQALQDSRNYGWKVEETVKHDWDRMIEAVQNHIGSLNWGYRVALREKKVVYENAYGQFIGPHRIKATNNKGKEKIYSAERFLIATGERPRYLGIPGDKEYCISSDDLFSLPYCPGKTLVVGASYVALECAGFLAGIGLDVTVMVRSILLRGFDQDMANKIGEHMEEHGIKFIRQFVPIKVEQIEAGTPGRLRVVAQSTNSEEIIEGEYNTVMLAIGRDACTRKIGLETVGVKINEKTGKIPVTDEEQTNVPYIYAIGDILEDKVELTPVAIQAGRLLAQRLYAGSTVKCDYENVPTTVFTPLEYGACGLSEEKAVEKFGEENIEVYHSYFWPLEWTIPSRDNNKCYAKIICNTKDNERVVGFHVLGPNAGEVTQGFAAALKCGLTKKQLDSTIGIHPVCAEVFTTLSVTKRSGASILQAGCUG
# UniProt O95155, whole entry, looked up: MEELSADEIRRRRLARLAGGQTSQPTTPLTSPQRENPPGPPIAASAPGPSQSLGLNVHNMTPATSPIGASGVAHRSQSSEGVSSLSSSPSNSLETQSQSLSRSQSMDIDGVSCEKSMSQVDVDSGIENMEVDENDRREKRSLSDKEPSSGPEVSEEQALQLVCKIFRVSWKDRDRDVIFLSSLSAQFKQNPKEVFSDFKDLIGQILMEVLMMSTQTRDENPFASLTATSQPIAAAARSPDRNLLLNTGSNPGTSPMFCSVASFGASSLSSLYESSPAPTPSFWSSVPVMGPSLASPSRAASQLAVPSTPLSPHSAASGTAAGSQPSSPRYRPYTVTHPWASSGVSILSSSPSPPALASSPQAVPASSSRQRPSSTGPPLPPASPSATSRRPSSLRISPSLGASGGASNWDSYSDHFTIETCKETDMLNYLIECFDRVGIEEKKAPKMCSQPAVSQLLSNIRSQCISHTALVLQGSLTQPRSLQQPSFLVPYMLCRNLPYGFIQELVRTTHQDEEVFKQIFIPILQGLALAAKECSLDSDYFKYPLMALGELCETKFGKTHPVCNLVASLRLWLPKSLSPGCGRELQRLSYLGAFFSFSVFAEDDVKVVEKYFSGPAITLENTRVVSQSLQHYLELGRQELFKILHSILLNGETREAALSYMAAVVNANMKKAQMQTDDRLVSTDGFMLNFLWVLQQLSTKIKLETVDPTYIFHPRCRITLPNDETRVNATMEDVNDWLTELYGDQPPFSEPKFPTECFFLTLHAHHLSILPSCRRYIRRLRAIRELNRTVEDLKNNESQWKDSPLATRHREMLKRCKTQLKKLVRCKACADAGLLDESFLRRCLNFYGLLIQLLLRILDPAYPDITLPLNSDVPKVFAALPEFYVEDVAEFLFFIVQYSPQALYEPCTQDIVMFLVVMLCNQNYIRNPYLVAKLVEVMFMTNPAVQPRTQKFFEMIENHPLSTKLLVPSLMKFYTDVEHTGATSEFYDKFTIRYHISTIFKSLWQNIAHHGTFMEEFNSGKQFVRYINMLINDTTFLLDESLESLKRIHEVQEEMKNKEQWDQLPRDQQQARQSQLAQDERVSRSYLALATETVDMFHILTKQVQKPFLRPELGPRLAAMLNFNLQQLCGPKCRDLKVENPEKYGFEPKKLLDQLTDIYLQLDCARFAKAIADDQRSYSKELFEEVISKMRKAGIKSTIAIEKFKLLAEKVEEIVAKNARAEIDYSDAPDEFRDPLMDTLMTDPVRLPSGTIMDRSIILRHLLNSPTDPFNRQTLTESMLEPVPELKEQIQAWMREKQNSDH
# UniProt P61081: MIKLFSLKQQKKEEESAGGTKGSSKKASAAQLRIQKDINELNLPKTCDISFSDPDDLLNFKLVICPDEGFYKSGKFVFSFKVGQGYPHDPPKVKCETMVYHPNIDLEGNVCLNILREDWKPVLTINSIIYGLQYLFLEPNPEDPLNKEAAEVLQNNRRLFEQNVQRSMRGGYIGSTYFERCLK
# UniProt Q7Z3V4: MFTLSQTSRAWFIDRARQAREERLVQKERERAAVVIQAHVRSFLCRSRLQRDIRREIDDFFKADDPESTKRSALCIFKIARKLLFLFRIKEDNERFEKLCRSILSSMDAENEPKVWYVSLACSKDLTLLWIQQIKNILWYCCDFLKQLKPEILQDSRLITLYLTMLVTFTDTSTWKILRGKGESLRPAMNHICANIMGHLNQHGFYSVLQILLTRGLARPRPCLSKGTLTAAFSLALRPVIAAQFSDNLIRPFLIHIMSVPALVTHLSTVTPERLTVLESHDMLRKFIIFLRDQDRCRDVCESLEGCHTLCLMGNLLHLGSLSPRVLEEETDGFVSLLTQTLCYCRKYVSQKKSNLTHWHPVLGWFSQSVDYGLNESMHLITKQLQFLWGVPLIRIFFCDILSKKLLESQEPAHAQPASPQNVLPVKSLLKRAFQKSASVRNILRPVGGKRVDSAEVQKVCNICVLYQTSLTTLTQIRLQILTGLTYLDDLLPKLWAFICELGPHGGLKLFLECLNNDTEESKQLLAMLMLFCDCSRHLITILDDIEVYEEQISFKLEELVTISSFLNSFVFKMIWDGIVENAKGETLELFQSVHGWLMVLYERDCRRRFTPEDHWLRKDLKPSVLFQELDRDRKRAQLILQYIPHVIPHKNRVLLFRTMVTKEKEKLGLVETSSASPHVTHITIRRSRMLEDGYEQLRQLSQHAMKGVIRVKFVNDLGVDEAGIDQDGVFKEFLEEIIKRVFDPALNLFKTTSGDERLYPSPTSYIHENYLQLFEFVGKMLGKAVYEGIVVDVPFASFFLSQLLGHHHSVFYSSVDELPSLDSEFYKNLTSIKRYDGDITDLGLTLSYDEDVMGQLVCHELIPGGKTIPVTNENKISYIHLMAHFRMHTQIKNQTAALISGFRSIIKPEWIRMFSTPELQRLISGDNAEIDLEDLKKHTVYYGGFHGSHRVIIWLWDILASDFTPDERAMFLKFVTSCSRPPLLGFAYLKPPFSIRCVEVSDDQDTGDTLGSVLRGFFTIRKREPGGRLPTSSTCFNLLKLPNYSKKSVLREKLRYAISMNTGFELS
# UniProt Q14157: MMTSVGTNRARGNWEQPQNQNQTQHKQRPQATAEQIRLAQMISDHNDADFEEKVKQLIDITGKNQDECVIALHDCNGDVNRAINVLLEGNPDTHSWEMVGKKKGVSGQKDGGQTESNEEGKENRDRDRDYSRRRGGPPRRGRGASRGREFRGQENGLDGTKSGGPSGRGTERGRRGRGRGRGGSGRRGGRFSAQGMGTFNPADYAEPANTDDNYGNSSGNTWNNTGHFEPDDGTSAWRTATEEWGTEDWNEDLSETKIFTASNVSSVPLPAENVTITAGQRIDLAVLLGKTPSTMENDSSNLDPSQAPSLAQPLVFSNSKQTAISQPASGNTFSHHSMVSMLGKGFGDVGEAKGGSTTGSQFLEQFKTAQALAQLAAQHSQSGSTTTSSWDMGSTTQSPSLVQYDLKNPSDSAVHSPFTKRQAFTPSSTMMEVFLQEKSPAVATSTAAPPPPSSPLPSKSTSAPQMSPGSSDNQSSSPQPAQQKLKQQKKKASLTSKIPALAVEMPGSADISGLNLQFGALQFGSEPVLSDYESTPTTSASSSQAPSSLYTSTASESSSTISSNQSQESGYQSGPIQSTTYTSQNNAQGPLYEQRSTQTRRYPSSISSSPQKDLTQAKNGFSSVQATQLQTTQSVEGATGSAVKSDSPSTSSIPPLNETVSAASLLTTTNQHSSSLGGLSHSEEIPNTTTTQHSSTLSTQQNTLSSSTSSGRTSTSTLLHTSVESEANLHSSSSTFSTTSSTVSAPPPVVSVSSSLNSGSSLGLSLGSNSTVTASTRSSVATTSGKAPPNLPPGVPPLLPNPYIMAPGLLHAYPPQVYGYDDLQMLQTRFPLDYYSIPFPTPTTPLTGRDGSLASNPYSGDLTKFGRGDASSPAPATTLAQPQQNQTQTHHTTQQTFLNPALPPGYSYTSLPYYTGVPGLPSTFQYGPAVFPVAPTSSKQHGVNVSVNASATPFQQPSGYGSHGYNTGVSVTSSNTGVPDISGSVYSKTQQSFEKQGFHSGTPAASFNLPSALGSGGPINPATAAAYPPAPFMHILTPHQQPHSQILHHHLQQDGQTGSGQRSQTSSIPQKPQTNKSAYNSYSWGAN
# UniProt Q9NNW7, whole entry, looked up: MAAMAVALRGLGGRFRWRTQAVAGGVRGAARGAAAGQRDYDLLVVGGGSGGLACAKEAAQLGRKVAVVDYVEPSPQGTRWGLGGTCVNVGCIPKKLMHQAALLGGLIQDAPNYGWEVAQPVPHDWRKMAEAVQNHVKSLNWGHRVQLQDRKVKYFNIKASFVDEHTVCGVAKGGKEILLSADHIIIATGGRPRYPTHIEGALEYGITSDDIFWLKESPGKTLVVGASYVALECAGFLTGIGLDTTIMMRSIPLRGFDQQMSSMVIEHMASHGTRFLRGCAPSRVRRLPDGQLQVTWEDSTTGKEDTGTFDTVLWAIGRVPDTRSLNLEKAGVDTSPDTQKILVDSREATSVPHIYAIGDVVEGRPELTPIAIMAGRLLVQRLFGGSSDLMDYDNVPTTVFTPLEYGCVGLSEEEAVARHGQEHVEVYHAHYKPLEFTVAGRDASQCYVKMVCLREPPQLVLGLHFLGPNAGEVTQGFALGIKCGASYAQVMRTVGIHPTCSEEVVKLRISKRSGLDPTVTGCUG
# The list shows a part of the results.
# Compound: Cc1cc(ccc1-c1ccccc1)C(=O)N1CCCN(CC1)C(=O)CCl [compound 10]
# Assay: probe-labelled cysteine peptide fold change vs DMSO (competition) (log2 fold change); higher = less target engagement (more negative = stronger competition)
# Settings: 10 µM; THP-1; incubation time: 4 h
# 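Also: competitive profiling in live THP-1 cells: cysteine peptides tagged with an iodoacetamide desthiobiotin (IA-DTB) probe, intensity after compound treatment relative to DMSO-treated cells.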
row,Target,probe-labelled cysteine peptide fold change
1,TXNL1_O43396_135+137_AGCECLNESDEHGFDNCLR (UniProt O43396),-0.344
2,UBALD2_Q8IYN6_23_HQVMINQFVLAAGCAADQAK (UniProt Q8IYN6),0.55
3,UAP1L1_Q3KQV9_278_LADPVFIGFCVLQGADCGAK (UniProt Q3KQV9),0.128
4,UBR2_Q8IWV8_1717_GNPLHLCK (UniProt Q8IWV8),-0.263
5,UBE2E1_P51965_67_ELADITLDPPPNCSAGPK (UniProt P51965),-0.0941
6,UBE3A_Q05086_760_YLFRPEEIELLICGSR (UniProt Q05086),0.173
7,UBA7_P41226_68_NLVLMGVGSLTLHDPHPTCWSDLAAQFLLSEQDLER (UniProt P41226),0.0506
8,TXNRD1_Q16881_625_QLDSTIGIHPVCAEVFTTLSVTK (UniProt Q16881),0.287
9,TYMP_P19971_293_CVGHALEVEEALLCMDGAGPPDLR (UniProt P19971),0.385
10,UBE2R2_Q712K3_191_VPTTLAEYCIK (UniProt Q712K3),-0.145
11,UBE4B_O95155_113_SQSMDIDGVSCEK (UniProt O95155),-0.246
12,UBL5_Q9BZL1_18_CNTDDTIGDLKK (UniProt Q9BZL1),0.169
13,UBE2M_P61081_95_CETMVYHPNIDLEGNVCLNILR (UniProt P61081),0.0603
14,UBR3_Q6ZT12_1289_KLPISEEEQIYPWDTCAAVHDVR (UniProt Q6ZT12),-0.189
15,UBE3A_Q05086_198_AACSAAAMEEDSEASSSR (UniProt Q05086),-0.044
16,UBA7_P41226_552_CTHYLK (UniProt P41226),0.0632
17,UBQLN4_Q9NRR5_29_DKEEIVICDR (UniProt Q9NRR5),0.0616
18,UBE2M_P61081_111_CETMVYHPNIDLEGNVCLNILR (UniProt P61081),0.159

row,Target,probe-labelled cysteine peptide fold change
1,TYW1B_Q6NUM6_581_ELVDLIPEYEIACEHEHSNCLLIAHR (UniProt Q6NUM6),-0.18
2,UBN2_Q6ZU65_515_SGVYSHLEAFVPCNK (UniProt Q6ZU65),0.14
3,UBASH3B_Q8TF42_135_AHNIFPHITLCQFFMCEDSKVDALGEALQTTVSR (UniProt Q8TF42),0.216
4,UAP1L1_Q3KQV9_57_AAEACARPHGPPPDLAAR (UniProt Q3KQV9),-0.0822
5,UBR1_Q8IWV7_1577_WCADPALLNCLK (UniProt Q8IWV7),0.0611
6,UBA7_P41226_996_VLVLELSCEGDDEDTAFPPLHYEL (UniProt P41226),-0.0157
7,UBR4_Q5T4S7_2618+2619_QLEGDCCSFITQLVNHFWK (UniProt Q5T4S7),0.0442
8,UBL5_Q9BZL1_6_MIEVVCNDR (UniProt Q9BZL1),0.108
9,UBA6_A0AVT1_311_CLIVDFSNPEAPLEIHTAMLALDQFQEK,0.275
10,UBE2M_P61081_47_TCDISFSDPDDLLNFK (UniProt P61081),0.0206
11,UBE4A_Q14139_175_HIFCYLYSCFQR (UniProt Q14139),-0.0734
12,UBE3B_Q7Z3V4_311_DVCESLEGCHTLCLMGNLLHLGSLSPR (UniProt Q7Z3V4),-0.115
13,UBAP2L_Q14157_68_NQDECVIALHDCNGDVNR (UniProt Q14157),0.132
14,UBR2_Q8IWV8_1619_LINLPEDYSSLINQASNFSCPK (UniProt Q8IWV8),0.0975
15,UBR5_O95071_883_CDYEACR (UniProt O95071),0.0126
16,UBASH3B_Q8TF42_367_RPYEDQGLGETTPLTIICQPMQPLR (UniProt Q8TF42),-0.248
17,TXNRD2_Q9NNW7_446_DASQCYVK (UniProt Q9NNW7),0.198
18,UBA6_A0AVT1_581_CLANLRPLLDSGTMGTK,0.0392

# Same assay, conditions: 50 µM; THP-1; incubation time: 4 h
row,Target,probe-labelled cysteine peptide fold change
1,TXNL1_O43396_135+137_AGCECLNESDEHGFDNCLR (UniProt O43396),-0.462
2,UBALD2_Q8IYN6_23_HQVMINQFVLAAGCAADQAK (UniProt Q8IYN6),0.229
3,UAP1L1_Q3KQV9_278_LADPVFIGFCVLQGADCGAK (UniProt Q3KQV9),0.735
4,UBR2_Q8IWV8_1717_GNPLHLCK (UniProt Q8IWV8),-1.31
5,UBE2E1_P51965_67_ELADITLDPPPNCSAGPK (UniProt P51965),0.00198
6,UBE3A_Q05086_760_YLFRPEEIELLICGSR (UniProt Q05086),-0.147
7,UBA7_P41226_68_NLVLMGVGSLTLHDPHPTCWSDLAAQFLLSEQDLER (UniProt P41226),0.33
8,TXNRD1_Q16881_625_QLDSTIGIHPVCAEVFTTLSVTK (UniProt Q16881),0.315
9,TYMP_P19971_293_CVGHALEVEEALLCMDGAGPPDLR (UniProt P19971),0.197
10,UBE2R2_Q712K3_191_VPTTLAEYCIK (UniProt Q712K3),-0.321
11,UBE4B_O95155_113_SQSMDIDGVSCEK (UniProt O95155),-0.554
12,UBL5_Q9BZL1_18_CNTDDTIGDLKK (UniProt Q9BZL1),-0.92
13,UBE2M_P61081_95_CETMVYHPNIDLEGNVCLNILR (UniProt P61081),-0.0752
14,UBR3_Q6ZT12_1289_KLPISEEEQIYPWDTCAAVHDVR (UniProt Q6ZT12),-0.369
15,UBE3A_Q05086_198_AACSAAAMEEDSEASSSR (UniProt Q05086),-0.416
16,UBA7_P41226_552_CTHYLK (UniProt P41226),-0.0584
17,UBQLN4_Q9NRR5_29_DKEEIVICDR (UniProt Q9NRR5),-0.432
18,UBE2M_P61081_111_CETMVYHPNIDLEGNVCLNILR (UniProt P61081),-0.000674

row,Target,probe-labelled cysteine peptide fold change
1,TYW1B_Q6NUM6_581_ELVDLIPEYEIACEHEHSNCLLIAHR (UniProt Q6NUM6),0.153
2,UBN2_Q6ZU65_515_SGVYSHLEAFVPCNK (UniProt Q6ZU65),-0.0231
3,UBASH3B_Q8TF42_135_AHNIFPHITLCQFFMCEDSKVDALGEALQTTVSR (UniProt Q8TF42),-0.422
4,UAP1L1_Q3KQV9_57_AAEACARPHGPPPDLAAR (UniProt Q3KQV9),-0.0801
5,UBR1_Q8IWV7_1577_WCADPALLNCLK (UniProt Q8IWV7),-0.0474
6,UBA7_P41226_996_VLVLELSCEGDDEDTAFPPLHYEL (UniProt P41226),0.059
7,UBR4_Q5T4S7_2618+2619_QLEGDCCSFITQLVNHFWK (UniProt Q5T4S7),-1.45
8,UBL5_Q9BZL1_6_MIEVVCNDR (UniProt Q9BZL1),-0.685
9,UBA6_A0AVT1_311_CLIVDFSNPEAPLEIHTAMLALDQFQEK,0.292
10,UBE2M_P61081_47_TCDISFSDPDDLLNFK (UniProt P61081),-0.00247
11,UBE4A_Q14139_175_HIFCYLYSCFQR (UniProt Q14139),0.337
12,UBE3B_Q7Z3V4_311_DVCESLEGCHTLCLMGNLLHLGSLSPR (UniProt Q7Z3V4),-0.154
13,UBAP2L_Q14157_68_NQDECVIALHDCNGDVNR (UniProt Q14157),0.00619
14,UBR2_Q8IWV8_1619_LINLPEDYSSLINQASNFSCPK (UniProt Q8IWV8),-0.0342
15,UBR5_O95071_883_CDYEACR (UniProt O95071),-0.0696
16,UBASH3B_Q8TF42_367_RPYEDQGLGETTPLTIICQPMQPLR (UniProt Q8TF42),-0.477
17,TXNRD2_Q9NNW7_446_DASQCYVK (UniProt Q9NNW7),0.101
18,UBA6_A0AVT1_581_CLANLRPLLDSGTMGTK,-0.0292
